In the supplement of paper PMC12067093, “Discovery and optimisation of a covalent ligand for TRIM25 and its application to targeted protein ubiquitination” (Chemical Science, 2025):
The other results are listed elsewhere or left out.

Compound: Cc1cc(ccc1-c1ccccc1)C(=O)N1CCCN(CC1)C(=O)CCl [compound 10]
Assay: probe-labelled cysteine peptide fold change vs DMSO (competition) (log2 fold change); higher = less target engagement (more negative = stronger competition)
Conditions: THP-1, incubation time: 4 h
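Further: competitive profiling in live THP-1 cells: cysteine peptides tagged with an iodoacetamide desthiobiotin (IA-DTB) probe, intensity after compound treatment relative to DMSO-treated cells.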

Row | Target | probe-labelled cysteine peptide fold change (10 µM) | probe-labelled cysteine peptide fold change (50 µM)
1 | SKP1_P63208_62_VIQWCTHHK (UniProt P63208) | 0.181 | 0.677
2 | SETDB1_Q15047_385_RCEWIYR (UniProt Q15047) | 0.221 | 0.291
3 | SKAP2_O75563_185+186_DCCFEISAPDKR (UniProt O75563) | 0.206 | -0.405
4 | SEPT6_Q14141_42_SVSQGFCFNILCVGETGLGK (UniProt Q14141) | 0.0157 | -0.0234
5 | SF3B6_Q9Y3B4_74+83_NACDHLSGFNVCNR (UniProt Q9Y3B4) | 0.117 | 0.15
6 | SETDB1_Q15047_781_RLEECLPTGVYECNKR (UniProt Q15047) | 0.0271 | -0.403
7 | SIN3A_Q96ST3_425_KPQLNNKPQRPSQNGCQIR (UniProt Q96ST3) | -0.322 | -0.761
8 | SHKBP1_Q8TBC3_491_ILALESADGHGGCSAGNDIGPYGER (UniProt Q8TBC3) | -0.0949 | -0.0128
9 | SF3A3_Q12874_103_KHPNEICVPMSVEFEELLK (UniProt Q12874) | -0.0763 | -0.0663
10 | SKA3_Q8IX90_126_NSVHEQEAINSDPELSNCENFQK (UniProt Q8IX90) | 0.068 | 0.391
11 | SHKBP1_Q8TBC3_550_SVDGSPTTAFTVLECEGSR (UniProt Q8TBC3) | -0.0633 | -0.853
12 | SIN3A_Q96ST3_551_ATEGIAMEIDYASCK (UniProt Q96ST3) | -0.0731 | -0.00474
13 | SF3B3_Q15393_589_EMSADVVCMSLANVPPGEQR (UniProt Q15393) | -0.0758 | 0.0219
14 | SETD2_Q9BYW2_1086_NSTLPMEETSPCSSR (UniProt Q9BYW2) | 0.21 | 0.505
15 | SIGLEC5_O15389_314_SAEEGGFTCR (UniProt O15389) | -0.0918 | -0.198
16 | SHCBP1_Q8NEM2_271_SSLSNCNSDSEQENISMVEGLK (UniProt Q8NEM2) | -0.214 | -0.317
17 | SINHCAF_Q9NP50_41_DFQSCFGLHETR (UniProt Q9NP50) | -0.13 | -0.193
18 | SEPT7_Q16181_280_QYPWGVAEVENGEHCDFTILR (UniProt Q16181) | -0.0371 | -0.00862
19 | SIRT1_Q96EB6_371_IIQCHGSFATASCLICK (UniProt Q96EB6) | 0.14 | -0.175
20 | SEPT5_Q99719_300_DVTCDVHYENYR (UniProt Q99719) | -0.0149 | 0.168
21 | SIK3_Q9Y2K2_290_IPFFMSTECEHLIR (UniProt Q9Y2K2) | -0.0505 | -0.135

In another format: entries from further up.
Row,Target,probe-labelled cysteine peptide fold change (10 µM),probe-labelled cysteine peptide fold change (50 µM)
11,SHKBP1_Q8TBC3_550_SVDGSPTTAFTVLECEGSR (UniProt Q8TBC3),-0.0633,-0.853
14,SETD2_Q9BYW2_1086_NSTLPMEETSPCSSR (UniProt Q9BYW2),0.21,0.505
18,SEPT7_Q16181_280_QYPWGVAEVENGEHCDFTILR (UniProt Q16181),-0.0371,-0.00862

Further records

Row | Target | probe-labelled cysteine peptide fold change (10 µM) | probe-labelled cysteine peptide fold change (50 µM)
22 | SIVA1_O15304_62_LLFLGAQAYLDHVWDEGCAVVHLPESPKPGPTGAPR (UniProt O15304) | 0.299 | 0.218
23 | SERINC3_Q13530_72_KIPGFCEGGFK (UniProt Q13530) | -0.0848 | 0.135
24 | SIK3_Q9Y2K2_121_MLCHPHIIR (UniProt Q9Y2K2) | -0.0228 | -0.138
25 | SEPT7_Q16181_160_VQCCLYFIAPSGHGLKPLDIEFMK (UniProt Q16181) | 0.0275 | -0.536
26 | SLC27A2_O14975_414_DEPVRDENGYCVR (UniProt O14975) | 0.0722 | 0.42
27 | SFMBT1_Q9UHJ3_365_QCGAEAAPQR (UniProt Q9UHJ3) | -0.105 | -0.199
28 | SFMBT2_Q5VUG0_796_CPPTKPEGTEDTKQEEEERLVLESNPLEWTVTDVVR (UniProt Q5VUG0) | 0.17 | 0.0601
29 | SHPK_Q9UHJ6_132_CSSEFLASLPQPK (UniProt Q9UHJ6) | -0.0796 | 0.128
30 | SLC25A22_Q9H936_116_EMLAGCGAGTCQVIVTTPMEMLK (UniProt Q9H936) | 0.343 | -0.0416
31 | SF3B3_Q15393_289_GMIFVCSATHK (UniProt Q15393) | 0.254 | 0.341
32 | SF3B3_Q15393_1054_FGNICVVR (UniProt Q15393) | 0.206 | 0.192
33 | SLC12A2_P55011_791_NFRPQCLVMTGAPNSRPALLHLVHDFTK (UniProt P55011) | -0.135 | -0.136
34 | SLAIN2_Q9P270_152_SVSPLVWCR (UniProt Q9P270) | -0.073 | 0.0833
35 | SETX_Q7Z333_2630_CDDPEEELCHR (UniProt Q7Z333) | -0.179 | -0.174
36 | SKIV2L_Q15477_719_GLDPTGTVILLCK (UniProt Q15477) | 0.0937 | 0.25
37 | SFMBT1_Q9UHJ3_659_IGRPPGGHSNLACALK (UniProt Q9UHJ3) | -0.154 | -0.433
38 | SIKE1_Q9BRV8_146_ICEMGEVMR (UniProt Q9BRV8) | 0.0507 | -0.0257
39 | SEPT7_Q16181_160_VQCCLYFIAPSGHGLK (UniProt Q16181) | 0.0433 | -0.0577
40 | SETX_Q7Z333_1656_NSCNVLHPQSPNNSNR (UniProt Q7Z333) | -0.205 | -0.146
41 | SHKBP1_Q8TBC3_447_HLISVCADNNHVR (UniProt Q8TBC3) | -0.21 | 0.106
42 | SLC25A5_P05141_257_GTDIMYTGTLDCWR (UniProt P05141) | -0.0133 | 0.173

Single records, as listed above. Order of values: probe-labelled cysteine peptide fold change (10 µM) | probe-labelled cysteine peptide fold change (50 µM)
SIKE1_Q9BRV8_146_ICEMGEVMR (UniProt Q9BRV8) in the list: 0.0507 | -0.0257
SLC25A5_P05141_257_GTDIMYTGTLDCWR (UniProt P05141) in the list: -0.0133 | 0.173
SIVA1_O15304_62_LLFLGAQAYLDHVWDEGCAVVHLPESPKPGPTGAPR (UniProt O15304) in the list: 0.299 | 0.218
SF3B3_Q15393_1054_FGNICVVR (UniProt Q15393) in the list: 0.206 | 0.192

The list goes on.

Row | Target | probe-labelled cysteine peptide fold change (10 µM) | probe-labelled cysteine peptide fold change (50 µM)
43 | SF3B3_Q15393_1156_SEHPPLCGR (UniProt Q15393) | 0.0524 | 0.191
44 | SETDB1_Q15047_329_TWEDIEDISCR (UniProt Q15047) | 0.197 | 0.323
45 | SF3B3_Q15393_289_NDLDDPERGMIFVCSATHK (UniProt Q15393) | 0.111 | 0.0605
46 | SKA1_Q96BD8_10_ASSDLEQLCSHVNEK (UniProt Q96BD8) | 0.00496 | -0.177
47 | SETD2_Q9BYW2_900_CGENTSPVLDAVLK (UniProt Q9BYW2) | 0.00684 | -0.355
48 | SETX_Q7Z333_1398_AGSHTAQNSDIFVPESDRSDYNCTGGTEVLANSNR (UniProt Q7Z333) | -0.398 | -0.305
49 | SHMT2_P34897_91_AALEALGSCLNNK (UniProt P34897) | -0.0984 | 0.0251
50 | SFPQ_P23246_431_CSEGVFLLTTTPRPVIVEPLEQLDDEDGLPEK (UniProt P23246) | 0.102 | 0.462
51 | SKA3_Q8IX90_20_SLASTLDCETAR (UniProt Q8IX90) | 0.0147 | 0.215
52 | SLC16A3_O15427_161_RPMANGLAAAGSPVFLCALSPLGQLLQDR (UniProt O15427) | -0.111 | -0.0849
53 | SKAP2_O75563_185_DCCFEISAPDKR (UniProt O75563) | 0.0253 | -0.338
54 | SHCBP1_Q8NEM2_591_VDLEELIECATGK (UniProt Q8NEM2) | -0.296 | 0.111
55 | SEPT9_Q9UHD8_531_TKWGTIEVENTTHCEFAYLR (UniProt Q9UHD8) | -0.0155 | -0.371
56 | SF3A3_Q12874_103_HPNEICVPMSVEFEELLK (UniProt Q12874) | -0.071 | 0.324
57 | SH3KBP1_Q96B97_301_DCIDVGWWEGELNGR (UniProt Q96B97) | -0.0215 | 0.0215
58 | SHOC2_Q9UQ13_260_EIGNCTQITNLDLQHNELLDLPDTIGNLSSLSR (UniProt Q9UQ13) | -0.0286 | 0.259
59 | SLC1A5_Q15758_363_CVEENNGVAK (UniProt Q15758) | 0.0149 | -0.0681
60 | SKIV2L_Q15477_579_GRCDEQASGLTSLDLTTSSEK (UniProt Q15477) | 0.154 | -0.112
61 | SESN1_Q9Y6P5_286_QLQECRDEEEASQEEMASR (UniProt Q9Y6P5) | 0.0129 | 0.0662
62 | SLC12A2_P55011_630_IFQALCK (UniProt P55011) | 0.0669 | 0.000601
63 | SF3B2_Q13435_661_IPGLNSPIPESCSFGYHAGGWGKPPVDETGK (UniProt Q13435) | 0.121 | 0.304

Row | Target | probe-labelled cysteine peptide fold change (10 µM) | probe-labelled cysteine peptide fold change (50 µM)
64 | SH3KBP1_Q96B97_103_CQVAFSYLPQNDDELELK (UniProt Q96B97) | 0.135 | -0.0565
65 | SLC30A1_Q9Y6M5_433_SSVVPCELACR (UniProt Q9Y6M5) | -0.074 | -0.832
66 | SETD2_Q9BYW2_1516_AQGEIACGEDCLNR (UniProt Q9BYW2) | -0.275 | -0.436
67 | SLC25A4_P12235_160_EFHGLGDCIIK (UniProt P12235) | -0.0565 | -0.0685
68 | SKP1_P63208_62_KVIQWCTHHK (UniProt P63208) | 0.13 | 0.23
69 | SLC25A20_O43772_136_CLLQIQASSGESK (UniProt O43772) | 0.0784 | -0.0678
70 | SH3GLB1_Q9Y371_121_CGETQKR (UniProt Q9Y371) | -0.0376 | -0.383
71 | SH3GLB1_Q9Y371_304_ECSGSR (UniProt Q9Y371) | -0.299 | 0.164
72 | SH2B2_O14492_333_VASCSCELLTDAVDLPRPPETTAVGAVVTAPHSR (UniProt O14492) | 0.129 | -0.133
73 | SLC27A3_Q5K4L6_256_RGPLLHCLR (UniProt Q5K4L6) | 0.0393 | -0.169
74 | SH3PXD2B_A1X283_115_ALIQLPPYISQCDEVLQFFETRPEDLNPPKEEHIGK (UniProt A1X283) | -0.227 | -0.325
75 | SERPINB8_P50452_364+368_TNCILFCGR (UniProt P50452) | -0.229 | -0.331
76 | SIPA1_Q96FS4_307_LLEHVAPQLSPSCLR (UniProt Q96FS4) | -0.36 | -0.251
77 | SERPINB10_P48595_68_CDPESEK (UniProt P48595) | -0.181 | -0.213
78 | SHPK_Q9UHJ6_187_SYDAAGTIHDYVVAMLCGLPR (UniProt Q9UHJ6) | 0.291 | 0.329
79 | SLC25A1_P53007_70_GIGDCVR (UniProt P53007) | 0.0396 | 0.0551
80 | SETX_Q7Z333_1398_AGSHTAQNSDIFVPESDRSDYNCTGGTEVLANSNRK (UniProt Q7Z333) | -0.406 | -0.192
81 | SERPINB6_P35237_36_NVFFSPMSMSCALAMVYMGAK (UniProt P35237) | -0.224 | -0.399
82 | SHPRH_Q149N8_1435_TSGGVNPEPCPICAR (UniProt Q149N8) | 0.0157 | 0.123
